The comparison behind a weaker result is the experiment's own reference, which may not be listed here.
Molecular target: Natural human growth hormone (hGH, somatotropin) (Homo sapiens) (UniProt P01241)
Test: ELONA
Conditions: weaker than r-hGH; purified native protein; label: 5'-biotin; single-stranded DNA

The chains behind the UniProt entries cited, without tags or fusion partners. Residues count along the entry.
UniProt P01241, 27-217: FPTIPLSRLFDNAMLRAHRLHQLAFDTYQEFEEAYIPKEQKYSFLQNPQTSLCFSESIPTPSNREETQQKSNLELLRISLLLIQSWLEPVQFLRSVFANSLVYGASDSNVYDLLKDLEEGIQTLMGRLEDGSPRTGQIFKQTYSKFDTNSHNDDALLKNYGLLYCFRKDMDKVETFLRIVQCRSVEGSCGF

Binding result, binds more weakly:
ATACGGGAGCCAACACCAGGTTGGCGTCAAAAGAAATAAGGGATATACATTAGAGAGCAGGTGTGACGGAT [hGH aptamer SEQ 345], ATCCGTCACACCTGCTCTAGGATTTTTGTTATGTCGGCCACGATGGGGACCCCGTGGTGTTGGCTCCCGTAT [hGH aptamer SEQ 348], ATCCGTCACACCTGCTCTGGGGTGTATCCTTTTATGGATCTGCGAGAATAAGTCTGGTGTTGGCTCCCGTAT [hGH aptamer SEQ 336], ATCCGTCACACCTGCTCTTGGGTGAATCAATTGTTCGTACTCCACGTGATTCTGTGGTGTTGGCTCCCGTAT [hGH aptamer SEQ 338], ATACGGGAGCCAACACCACATGACGGGTGACTAAAAGACGAAATCTCCCAATTAAGAGCAGGTGTGACGGAT [hGH aptamer SEQ 377], ATACGGGAGCCAACACCACCTGAGCGCCGGCAGCACTCACTATTTGTCCCCGCAAGAGCAGGTGTGACGGAT [hGH aptamer SEQ 379], ATCCGTCACACCTGCTCTAAAACATGGGCCCAATTAGGCGTGATCCAACCCGTCTGGTGTTGGCTCCCGTAT [hGH aptamer SEQ 388], ATACGGGAGCCAACACCATAAGCAGAGAACTACAAGACGATCCCATATTCCAAAGAGCAGGTGTGACGGAT [hGH aptamer SEQ 343]
